This is one part of the list.
What was measured:
Assay in all cases: log2 fold change, soluble protein after heating vs DMSO (PISA); higher = thermal stabilisation; K562 cells, 10 uM, 30 min; active = over 0.2 and 3.5 SD of the protein, either way, in both replicates (recomputed)
[1] = compound: CC1=C(C=C(C=C1)NC(=O)C2=CC(=CC=C2)C(C)(C)C#N)NC3=CC4=C(C=C3)N=CN(C4=O)C
In short: (§1)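 K562 cells at 2×10^6 cells/mL were treated for 30 min with 10 μM compound, and aliquots were heated for 3 min over 48°C-58°C before pooling. Extraction used PBS with 0.5% NP-40 at 4°C, and soluble protein was the supernatant after 21,000xg for 90 min, measured by TMTpro 16plex LC-MS/MS with channel sums equalised. Thermal stability values, relative to control samples and from duplicates, are log2 fold changes.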

Sequences of proteins named here, by UniProt entry; tags and fusion partners are left off. A change or cut given only in a name is not applied to a line headed by its entry.
UniProt A6NNZ2, whole entry, looked up: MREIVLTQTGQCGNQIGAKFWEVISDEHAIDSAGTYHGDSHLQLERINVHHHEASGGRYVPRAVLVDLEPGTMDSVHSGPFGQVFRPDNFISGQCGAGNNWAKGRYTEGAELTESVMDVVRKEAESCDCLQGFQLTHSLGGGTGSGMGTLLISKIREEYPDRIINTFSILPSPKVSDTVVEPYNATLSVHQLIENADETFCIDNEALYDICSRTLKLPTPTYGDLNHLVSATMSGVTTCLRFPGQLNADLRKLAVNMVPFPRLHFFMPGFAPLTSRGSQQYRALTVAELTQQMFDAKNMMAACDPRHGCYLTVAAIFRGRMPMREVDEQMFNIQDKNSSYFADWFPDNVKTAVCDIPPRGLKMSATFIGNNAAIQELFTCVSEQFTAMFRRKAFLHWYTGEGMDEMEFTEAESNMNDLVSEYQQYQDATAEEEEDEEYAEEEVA
UniProt Q96CW5, whole entry, looked up: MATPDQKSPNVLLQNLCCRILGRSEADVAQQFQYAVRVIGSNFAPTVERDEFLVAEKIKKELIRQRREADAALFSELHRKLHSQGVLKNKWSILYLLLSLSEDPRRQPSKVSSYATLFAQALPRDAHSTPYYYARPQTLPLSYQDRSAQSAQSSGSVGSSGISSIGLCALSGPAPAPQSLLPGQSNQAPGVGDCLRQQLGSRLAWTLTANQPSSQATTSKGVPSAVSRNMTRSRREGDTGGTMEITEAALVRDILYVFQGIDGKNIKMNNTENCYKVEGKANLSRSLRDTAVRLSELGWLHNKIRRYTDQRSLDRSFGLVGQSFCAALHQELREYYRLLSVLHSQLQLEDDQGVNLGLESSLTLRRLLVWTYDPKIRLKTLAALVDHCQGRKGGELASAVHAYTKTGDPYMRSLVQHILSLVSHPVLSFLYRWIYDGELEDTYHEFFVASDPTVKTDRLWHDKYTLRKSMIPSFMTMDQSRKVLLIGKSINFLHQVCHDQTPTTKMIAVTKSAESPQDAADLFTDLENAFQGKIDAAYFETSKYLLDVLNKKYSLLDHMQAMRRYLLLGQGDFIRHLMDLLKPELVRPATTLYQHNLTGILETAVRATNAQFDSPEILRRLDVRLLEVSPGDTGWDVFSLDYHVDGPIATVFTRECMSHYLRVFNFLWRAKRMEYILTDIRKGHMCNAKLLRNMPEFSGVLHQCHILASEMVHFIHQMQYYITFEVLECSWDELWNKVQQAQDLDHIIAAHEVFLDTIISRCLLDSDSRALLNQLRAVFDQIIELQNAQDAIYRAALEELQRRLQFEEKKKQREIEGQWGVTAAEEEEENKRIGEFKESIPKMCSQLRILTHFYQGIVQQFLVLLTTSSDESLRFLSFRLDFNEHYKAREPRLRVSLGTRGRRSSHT
UniProt Q5R3I4: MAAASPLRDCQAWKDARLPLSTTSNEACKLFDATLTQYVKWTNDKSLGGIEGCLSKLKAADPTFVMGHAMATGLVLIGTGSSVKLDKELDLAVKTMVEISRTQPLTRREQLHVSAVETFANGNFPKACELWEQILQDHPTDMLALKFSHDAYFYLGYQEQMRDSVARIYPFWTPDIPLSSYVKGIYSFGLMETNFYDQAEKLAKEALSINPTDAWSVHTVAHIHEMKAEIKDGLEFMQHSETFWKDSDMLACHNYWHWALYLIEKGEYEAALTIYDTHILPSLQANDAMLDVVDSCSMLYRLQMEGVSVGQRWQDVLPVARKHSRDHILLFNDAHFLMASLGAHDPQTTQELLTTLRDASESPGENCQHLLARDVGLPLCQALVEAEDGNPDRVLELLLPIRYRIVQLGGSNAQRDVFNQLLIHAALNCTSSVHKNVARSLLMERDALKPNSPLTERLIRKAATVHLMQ
UniProt Q9BTX7: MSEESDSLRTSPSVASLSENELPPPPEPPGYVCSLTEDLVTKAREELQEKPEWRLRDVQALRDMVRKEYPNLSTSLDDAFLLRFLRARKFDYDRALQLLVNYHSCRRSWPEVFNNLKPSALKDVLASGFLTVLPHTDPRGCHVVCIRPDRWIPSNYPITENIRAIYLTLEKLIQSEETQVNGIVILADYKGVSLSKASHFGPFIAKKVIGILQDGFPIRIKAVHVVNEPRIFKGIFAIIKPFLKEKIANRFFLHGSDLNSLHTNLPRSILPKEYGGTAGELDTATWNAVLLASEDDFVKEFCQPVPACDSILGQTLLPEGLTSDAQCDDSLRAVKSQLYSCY
UniProt Q9UNY4: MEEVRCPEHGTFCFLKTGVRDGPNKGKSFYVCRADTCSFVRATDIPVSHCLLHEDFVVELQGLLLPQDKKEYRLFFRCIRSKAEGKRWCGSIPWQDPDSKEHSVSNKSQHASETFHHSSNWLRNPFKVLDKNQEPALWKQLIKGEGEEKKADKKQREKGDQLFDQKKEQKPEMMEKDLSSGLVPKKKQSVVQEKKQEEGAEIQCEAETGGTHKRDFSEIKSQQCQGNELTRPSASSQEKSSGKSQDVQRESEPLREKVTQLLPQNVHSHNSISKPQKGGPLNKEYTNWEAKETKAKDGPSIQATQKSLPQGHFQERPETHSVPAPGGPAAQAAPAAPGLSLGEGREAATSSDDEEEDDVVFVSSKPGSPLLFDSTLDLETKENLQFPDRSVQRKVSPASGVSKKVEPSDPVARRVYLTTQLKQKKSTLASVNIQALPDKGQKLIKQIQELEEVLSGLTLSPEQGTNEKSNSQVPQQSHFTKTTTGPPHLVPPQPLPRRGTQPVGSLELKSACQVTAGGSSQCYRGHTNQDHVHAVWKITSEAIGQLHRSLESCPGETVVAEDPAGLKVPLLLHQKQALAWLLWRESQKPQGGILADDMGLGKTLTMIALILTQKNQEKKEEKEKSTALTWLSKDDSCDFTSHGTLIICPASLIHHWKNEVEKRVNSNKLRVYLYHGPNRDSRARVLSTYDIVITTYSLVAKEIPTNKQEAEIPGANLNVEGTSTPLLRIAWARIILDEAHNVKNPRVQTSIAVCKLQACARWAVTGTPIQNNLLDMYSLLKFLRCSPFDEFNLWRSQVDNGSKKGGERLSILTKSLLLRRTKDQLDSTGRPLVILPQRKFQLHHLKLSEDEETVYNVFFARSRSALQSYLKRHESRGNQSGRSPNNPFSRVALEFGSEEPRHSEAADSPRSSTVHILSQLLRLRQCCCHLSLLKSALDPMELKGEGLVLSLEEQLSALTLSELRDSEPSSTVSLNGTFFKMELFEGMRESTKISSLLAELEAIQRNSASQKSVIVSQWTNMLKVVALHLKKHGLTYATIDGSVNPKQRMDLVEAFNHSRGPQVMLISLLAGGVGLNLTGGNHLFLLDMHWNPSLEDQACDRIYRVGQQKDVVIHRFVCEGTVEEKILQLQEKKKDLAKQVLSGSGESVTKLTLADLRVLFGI
UniProt Q5BVD1: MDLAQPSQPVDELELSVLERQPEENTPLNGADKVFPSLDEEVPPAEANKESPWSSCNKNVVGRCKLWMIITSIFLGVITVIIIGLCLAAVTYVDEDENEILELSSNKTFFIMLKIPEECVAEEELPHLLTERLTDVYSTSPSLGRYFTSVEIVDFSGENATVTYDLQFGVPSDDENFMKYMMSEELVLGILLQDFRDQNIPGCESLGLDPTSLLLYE
UniProt Q86VQ3: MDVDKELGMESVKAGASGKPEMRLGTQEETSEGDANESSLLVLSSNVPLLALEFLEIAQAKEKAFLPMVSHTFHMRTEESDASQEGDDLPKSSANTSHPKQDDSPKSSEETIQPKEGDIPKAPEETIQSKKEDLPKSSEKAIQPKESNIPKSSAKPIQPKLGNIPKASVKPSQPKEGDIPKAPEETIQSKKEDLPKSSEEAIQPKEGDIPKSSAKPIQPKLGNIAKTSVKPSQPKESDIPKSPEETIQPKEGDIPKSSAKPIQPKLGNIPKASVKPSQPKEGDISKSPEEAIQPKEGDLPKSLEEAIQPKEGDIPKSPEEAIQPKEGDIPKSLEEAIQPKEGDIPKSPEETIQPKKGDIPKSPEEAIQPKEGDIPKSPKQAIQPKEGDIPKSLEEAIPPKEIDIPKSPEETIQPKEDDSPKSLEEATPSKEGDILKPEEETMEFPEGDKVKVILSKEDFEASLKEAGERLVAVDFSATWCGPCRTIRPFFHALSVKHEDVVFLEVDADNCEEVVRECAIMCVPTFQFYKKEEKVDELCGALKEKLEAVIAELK
UniProt Q6NXR4: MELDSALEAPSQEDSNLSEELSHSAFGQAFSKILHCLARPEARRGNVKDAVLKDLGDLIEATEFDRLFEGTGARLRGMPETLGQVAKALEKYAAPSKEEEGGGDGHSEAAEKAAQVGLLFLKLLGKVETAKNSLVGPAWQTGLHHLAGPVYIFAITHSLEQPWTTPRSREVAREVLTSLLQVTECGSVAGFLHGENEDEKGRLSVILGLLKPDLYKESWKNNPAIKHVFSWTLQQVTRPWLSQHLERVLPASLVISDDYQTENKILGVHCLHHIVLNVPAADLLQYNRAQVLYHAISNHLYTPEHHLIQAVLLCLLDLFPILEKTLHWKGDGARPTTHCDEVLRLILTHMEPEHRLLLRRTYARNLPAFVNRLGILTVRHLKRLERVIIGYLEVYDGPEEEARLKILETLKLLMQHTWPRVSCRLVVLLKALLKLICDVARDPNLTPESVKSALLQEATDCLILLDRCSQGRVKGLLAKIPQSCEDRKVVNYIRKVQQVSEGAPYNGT
UniProt Q9NZ09: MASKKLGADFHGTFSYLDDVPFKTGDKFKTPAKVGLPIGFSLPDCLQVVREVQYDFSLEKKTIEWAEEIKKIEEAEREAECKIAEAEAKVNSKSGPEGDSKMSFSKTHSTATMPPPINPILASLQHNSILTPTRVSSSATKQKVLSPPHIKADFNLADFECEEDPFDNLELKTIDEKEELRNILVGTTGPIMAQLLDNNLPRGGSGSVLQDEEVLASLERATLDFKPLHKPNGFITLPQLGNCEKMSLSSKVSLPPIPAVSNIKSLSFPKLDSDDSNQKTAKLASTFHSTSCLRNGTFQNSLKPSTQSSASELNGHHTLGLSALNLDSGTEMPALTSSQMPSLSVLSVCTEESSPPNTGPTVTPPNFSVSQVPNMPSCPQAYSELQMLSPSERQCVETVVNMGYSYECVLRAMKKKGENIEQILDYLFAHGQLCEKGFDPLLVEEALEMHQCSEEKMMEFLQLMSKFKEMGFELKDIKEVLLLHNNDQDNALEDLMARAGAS

[2] = compound: CC1=C(C=C(C=C1)NC(=O)C2=CC(=CC=C2)N(C)C)NC(=O)C3=CC=C(C=C3)O
In short: as §1

[3] = compound: CC1=NC(=CC=C1)C2=C(N=C(N2)C(C)(C)C)C3=CC4=NC=CN=C4C=C3
In short: as §1

Nexturastat A = compound: CCCCN(Cc1ccc(C(=O)NO)cc1)C(=O)Nc1ccccc1 [Nexturastat A]
In short: as §1

vemurafenib = compound: CCCS(=O)(=O)Nc1ccc(F)c(C(=O)c2c[nH]c3ncc(-c4ccc(Cl)cc4)cc23)c1F [vemurafenib]
In short: as §1

[4] = compound: CCCc1cc(C)[nH]c(=O)c1CNC(=O)c1cc(-c2ccnc(N3CCN(C)CC3)c2)cc2c1cnn2C(C)C
In short: as §1

givinostat = compound: CCN(CC)Cc1ccc2cc(COC(=O)Nc3ccc(C(=O)NO)cc3)ccc2c1 [givinostat]
In short: as §1

barasertib = compound: CCN(CCCOc1ccc2c(Nc3cc(CC(=O)Nc4cccc(F)c4)[nH]n3)ncnc2c1)CCOP(=O)(O)O [barasertib]
In short: as §1

[5] = compound: CC[C@@H]1C(=O)N(C)c2cnc(Nc3ccc(C(=O)NC4CCN(C)CC4)cc3OC)nc2N1C1CCCC1
In short: as §1

[6] = compound: CC[C@H](C)N1C=C(C2=C(C=C(C=C21)C3=CN=C(C=C3)N4CCNCC4)C(=O)NCC5=C(C=C(NC5=O)C)C)C
In short: as §1

epoxomicin = compound: CC[C@H](C)[C@@H](C(=O)N[C@@H]([C@@H](C)O)C(=O)N[C@@H](CC(C)C)C(=O)[C@]1(CO1)C)NC(=O)[C@H]([C@@H](C)CC)N(C)C(=O)C [epoxomicin]
In short: as §1

[7] = compound: CCn1c(C(=O)N(C2CC2)C2CC2)cc2c3c(ncn3C)c(Nc3cc(C)n(C)n3)nc21
In short: as §1

[8] = compound: CN(C)CC(=O)Nc1ccc2[nH]c(=O)c3ccccc3c2c1
In short: as §1

rosiglitazone = compound: CN(CCOC1=CC=C(C=C1)C[C@H]2C(=O)NC(=O)S2)C3=CC=CC=N3 (racemic) [rosiglitazone]
In short: as §1

[9] = compound: CC1=CC=C(C=C1)SC2=C3C=C(SC3=CN=C2)C(=O)N
In short: as §1

[10] = compound: CCCS(=O)(=O)Nc1ccc(F)c(C(=O)c2c[nH]c3ncc(Cl)cc23)c1F
In short: as §1

volasertib = compound: CC[C@@H]1C(=O)N(C)c2cnc(Nc3ccc(C(=O)N[C@H]4CC[C@H](N5CCN(CC6CC6)CC5)CC4)cc3OC)nc2N1C(C)C [volasertib]
In short: as §1

[11] = compound: CCn1cc(-c2ccnc3[nH]c(-c4cccc(CN(C)C)c4)cc23)c(-c2ccc(NC(=O)N(C)C)cc2)n1
In short: as §1

[12] = compound: CN1C2=C(C3=C1C(=O)N(N=C3)CC4=CC(=CC=C4)N)SC(=C2)S(=O)C
In short: as §1

[13] = compound: CN1CCC(CNc2ccc3ncc(-c4cccc(OC(F)(F)F)c4)n3n2)CC1
In short: as §1

Measured: log2 fold change

TUBB8B (UniProt A6NNZ2)
inactive: [1] -0.013 | [2] 0.047 | [3] 0.04 | Nexturastat A -0.085 | vemurafenib 0.053 | [4] 0.017 | givinostat -0.115 | barasertib -0.046 | [5] -0.012 | [6] 0.027 | epoxomicin 0.018 | [7] -0.09 | [8] 0.085 | rosiglitazone 0.036

TUBGCP3 (UniProt Q96CW5)
inactive: [1] 0.011 | [2] -0.118 | [9] 0.092 | [3] 0.006 | Nexturastat A 0.067 | vemurafenib -0.027 | [10] -0.024 | [4] -0.067 | givinostat 0.156 | barasertib 0.198 | volasertib -0.171 | [6] -0.202 | epoxomicin -0.144 | [7] -0.208 | [11] -0.006 | [8] -0.018 | rosiglitazone -0.066 | [12] 0.158 | [13] 0

TTC38 (UniProt Q5R3I4)
active: Nexturastat A 1.05 | givinostat 0.938
inactive: [1] -0.039 | [2] 0.405 | [9] 0.127 | [3] 0.019 | vemurafenib 0.031 | [10] 0.012 | [4] 0.141 | barasertib 0.023 | [5] 0.076 | volasertib 0.253 | [6] 0.041 | epoxomicin 0.012 | [11] -0.05 | [8] 0.136 | [12] -0.049 | [13] -0.039

TTPAL (UniProt Q9BTX7)
inactive: [1] 0 | [2] 0 | [9] 0.011 | [3] -0.044 | Nexturastat A 0.017 | vemurafenib -0.085 | [10] -0.013 | givinostat 0.046 | barasertib 0.052 | [5] 0.044 | volasertib -0.251 | [6] 0.095 | epoxomicin 0.048 | [7] -0.018 | [11] -0.098 | [8] 0.1 | rosiglitazone 0.034 | [12] -0.032 | [13] 0.082

UBA52 (UniProt P62987)
inactive: [1] -0.046 | [2] 0.024 | [9] -0.107 | [3] -0.16 | Nexturastat A 0.281 | vemurafenib -0.212 | [10] -0.165 | [4] 0.205 | givinostat -0.06 | barasertib 0.044 | [5] 0.227 | volasertib 0.572 | epoxomicin -0.29 | [11] 0.351 | [8] -0.256 | [13] 0.369

TTF2 (UniProt Q9UNY4)
inactive: [1] -0.051 | [2] -0.158 | [9] -0.095 | [3] -0.072 | Nexturastat A 0.363 | vemurafenib 0.053 | [10] -0.2 | [4] 0.028 | givinostat 0.067 | [5] 0.003 | volasertib -0.231 | [6] -0.034 | epoxomicin 0.052 | [7] -0.165 | [11] 0.112 | [8] 0.012 | [12] 0.107 | [13] -0.267

Two consecutive records out of the list so far, for reference:
TTPAL (UniProt Q9BTX7)
inactive: [1] 0 | [2] 0 | [9] 0.011 | [3] -0.044 | Nexturastat A 0.017 | vemurafenib -0.085 | [10] -0.013 | givinostat 0.046 | barasertib 0.052 | [5] 0.044 | volasertib -0.251 | [6] 0.095 | epoxomicin 0.048 | [7] -0.018 | [11] -0.098 | [8] 0.1 | rosiglitazone 0.034 | [12] -0.032 | [13] 0.082

UBA52 (UniProt P62987)
inactive: [1] -0.046 | [2] 0.024 | [9] -0.107 | [3] -0.16 | Nexturastat A 0.281 | vemurafenib -0.212 | [10] -0.165 | [4] 0.205 | givinostat -0.06 | barasertib 0.044 | [5] 0.227 | volasertib 0.572 | epoxomicin -0.29 | [11] 0.351 | [8] -0.256 | [13] 0.369

(further entries)

TTMP isoform 3 (UniProt Q5BVD1)
inactive: [1] 0.334 | [2] -0.02 | [3] -0.14 | Nexturastat A 0.324 | [4] -0.046 | givinostat 0.405 | barasertib 0.069 | [6] -0.233 | epoxomicin -0.113 | [7] -0.119 | [11] -0.146 | rosiglitazone 0.058 | [12] -0.122 | [13] -0.053

TXNDC2 (UniProt Q86VQ3)
inactive: [1] -0.01 | [2] 0.105 | [9] -0.136 | vemurafenib 0.005 | [10] -0.011 | barasertib 0.118 | [5] -0.203 | volasertib 0.071 | [6] -0.138 | [8] -0.03 | rosiglitazone 0.094 | [12] -0.061

TTI2 (UniProt Q6NXR4)
inactive: [1] 0.021 | [2] -0.039 | [9] 0.024 | [3] 0.023 | Nexturastat A 0.113 | vemurafenib 0.047 | [10] 0.06 | [4] -0.018 | givinostat 0.135 | barasertib -0.028 | [5] -0.173 | [6] 0.021 | epoxomicin 0.085 | [8] 0.09 | [12] 0.03
active: volasertib -0.414

UBAP1 isoform 4 (UniProt Q9NZ09)
active: volasertib -0.545
inactive: [1] 0.082 | [2] -0.002 | [9] 0.135 | [3] -0.015 | Nexturastat A -0.049 | vemurafenib 0.005 | [10] 0.159 | [4] 0.018 | givinostat 0.13 | barasertib 0.033 | [5] -0.012 | [6] 0 | epoxomicin 0.092 | [11] 0.006 | [8] -0.034 | [12] 0.023 | [13] -0.089
